PubChem BioAssay AID1259308 – NCATS | 2017
The deposit covers about 59,000 reagents; shown is a part drawn at random. About 1,510 of them (2.6%) were called active. 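Calls use total luciferase alone and ignore viability, so some active siRNAs may act by altering cell number.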 The numbers tell different reagents against one gene apart.

- Purpose: 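Candidate targets for better recombinant protein yield in mammalian cells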 (primary screen)
- Cell system: human HEK293 embryonic kidney cells stably expressing firefly luciferase (HEK-CMV-Luc2-Hygro)
- Reagents: single siRNA against human genes, 0.8 pmol siRNA per well
- Time to read-out: 72 h
- Measurement: 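Luciferase light (ONE-Glo) measured on one replicate plate set and viability (CellTiter-Glo) on the other, scaled to a negative control siRNA, with robust z-scores and luciferase per cell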
- Direction: total luciferase, z-score and total luciferase, % of control: higher = more reporter protein produced; luciferase per cell, z-score: higher = more reporter output per viable cell; viable cells, % of control: higher = more viable cells
- Hit rule: 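An siRNA counts as active if its total luciferase robust z-score exceeds 3; genes with two or more such siRNAs out of three were retested with fresh siRNAs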
- Meaning of the calls: active = raised luciferase; inactive = no rise

no.	gene knocked down	reagent no.	total luciferase, z-score	total luciferase, % of control	luciferase per cell, z-score	viable cells, % of control	outcome
1	NKD1 (NKD inhibitor of Wnt signaling pathway 1)	1	-0.653	68.9	-0.424	86.1	inactive
2	NKD1 (NKD inhibitor of Wnt signaling pathway 1)	2	0.2	85.9	0.0869	93.8	inactive
3	NKD1 (NKD inhibitor of Wnt signaling pathway 1)	3	-0.951	63	-1.82	114	inactive
4	THEMIS (thymocyte selection associated)	1	-0.384	74.2	1.08	62.4	inactive
5	THEMIS (thymocyte selection associated)	2	-0.567	70.6	-0.823	98	inactive
6	THEMIS (thymocyte selection associated)	3	-1.11	59.7	-0.399	74.1	inactive
7	BDNF (brain derived neurotrophic factor)	1	0.0528	82.9	-0.396	103	inactive
8	BDNF (brain derived neurotrophic factor)	2	-1.85	45	-2.56	98.7	inactive
9	BDNF (brain derived neurotrophic factor)	3	0.156	85	0.167	90.9	inactive
10	MSL3 (MSL complex subunit 3)	1	-0.962	62.8	0.593	60	inactive
11	MSL3 (MSL complex subunit 3)	2	0.328	88.4	0.0679	97.1	inactive
12	MSL3 (MSL complex subunit 3)	3	-0.615	69.7	0.573	66.9	inactive
13	DUSP10 (dual specificity phosphatase 10)	1	0.85	98.8	1.4	76.4	inactive
14	DUSP10 (dual specificity phosphatase 10)	2	-0.844	65.1	-1.57	110	inactive
15	DUSP10 (dual specificity phosphatase 10)	3	0.107	84	-0.0451	95	inactive
16	POLR2L (RNA polymerase II, I and III subunit L)	1	-1.93	43.5	-1.36	69.6	inactive
17	POLR2L (RNA polymerase II, I and III subunit L)	2	-0.579	70.4	-0.047	79.6	inactive
18	POLR2L (RNA polymerase II, I and III subunit L)	3	-0.851	65	-0.883	91.6	inactive
19	ABCA4 (ATP binding cassette subfamily A member 4)	1	-0.244	77	-0.0804	87.9	inactive
20	ABCA4 (ATP binding cassette subfamily A member 4)	2	2.2	126	2.87	66	inactive
21	ABCA4 (ATP binding cassette subfamily A member 4)	3	1.25	107	0.743	98	inactive
22	POF1B (POF1B actin binding protein)	1	0.472	91.3	0.498	89.5	inactive
23	POF1B (POF1B actin binding protein)	2	0.298	87.8	-0.0998	101	inactive
24	POF1B (POF1B actin binding protein)	3	-2.01	41.8	-1.94	77.9	inactive
25	SBK2 (SH3 domain binding kinase family member 2)	1	2.61	134	1.63	97.4	inactive
26	SBK2 (SH3 domain binding kinase family member 2)	2	0.611	94	0.307	96.9	inactive
27	SBK2 (SH3 domain binding kinase family member 2)	3	-0.732	67.3	-1.08	100	inactive
28	STRN (striatin)	1	-0.0859	80.2	0.201	85	inactive
29	STRN (striatin)	2	1.77	117	3.49	52.2	inactive
30	STRN (striatin)	3	-0.646	69	-0.652	91.6	inactive
31	C9orf163 (chromosome 9 putative open reading frame 163)	1	-0.0913	80.1	0.347	81.7	inactive
32	C9orf163 (chromosome 9 putative open reading frame 163)	2	-0.185	78.2	0.778	71.2	inactive
33	C9orf163 (chromosome 9 putative open reading frame 163)	3	-0.415	73.6	-0.0332	83	inactive
34	RPE (ribulose-5-phosphate-3-epimerase)	1	0.703	95.9	0.95	83.4	inactive
35	RPE (ribulose-5-phosphate-3-epimerase)	2	-0.708	67.8	0.842	60.7	inactive
36	RPE (ribulose-5-phosphate-3-epimerase)	3	0.149	84.9	-0.443	107	inactive
37	NHEJ1 (non-homologous end joining factor 1)	1	-0.263	76.6	-0.639	101	inactive
38	NHEJ1 (non-homologous end joining factor 1)	2	0.195	85.8	0.567	82.5	inactive
39	NHEJ1 (non-homologous end joining factor 1)	3	0.748	96.8	0.149	104	inactive
40	NCOR1P2 (NCOR1 pseudogene 2)	1	-0.713	67.7	-0.992	98.2	inactive
41	NCOR1P2 (NCOR1 pseudogene 2)	2	1.19	106	1.12	88	inactive
42	NCOR1P2 (NCOR1 pseudogene 2)	3	0.153	84.9	-0.044	96	inactive
43	CREBZF (CREB/ATF bZIP transcription factor)	1	-1.84	45.2	-1.53	75.7	inactive
44	CREBZF (CREB/ATF bZIP transcription factor)	2	-0.151	78.9	-0.717	106	inactive
45	CREBZF (CREB/ATF bZIP transcription factor)	3	2.11	124	2.22	77.1	inactive
46	MRPL14 (mitochondrial ribosomal protein L14)	1	-0.282	76.3	-0.337	93.2	inactive
47	MRPL14 (mitochondrial ribosomal protein L14)	2	-1.26	56.9	-1.28	89.1	inactive
48	MRPL14 (mitochondrial ribosomal protein L14)	3	0.108	84	0.179	89.6	inactive
49	STK17A (serine/threonine kinase 17a)	1	-0.303	75.9	-0.0607	86.1	inactive
50	STK17A (serine/threonine kinase 17a)	2	0.258	87	0.438	86.6	inactive
51	STK17A (serine/threonine kinase 17a)	3	-0.664	68.7	-0.679	91.8	inactive
52	OLFM4 (olfactomedin 4)	1	-0.615	69.7	-0.692	93.4	inactive
53	OLFM4 (olfactomedin 4)	2	2.86	139	1.92	93.5	inactive
54	OLFM4 (olfactomedin 4)	3	-0.873	64.5	-1.08	95.8	inactive
55	MINDY4 (MINDY lysine 48 deubiquitinase 4)	1	0.312	88.1	-0.0539	99.8	inactive
56	MINDY4 (MINDY lysine 48 deubiquitinase 4)	2	-1.12	59.6	-1.24	92.3	inactive
57	MINDY4 (MINDY lysine 48 deubiquitinase 4)	3	3.44	150	2.79	80.5	active

8 entries from above, ordered by “luciferase per cell, z-score”, high to low.
gene knocked down	reagent no.	total luciferase, z-score	total luciferase, % of control	luciferase per cell, z-score	viable cells, % of control	outcome
OLFM4 (olfactomedin 4)	2	2.86	139	1.92	93.5	inactive
STK17A (serine/threonine kinase 17a)	2	0.258	87	0.438	86.6	inactive
MRPL14 (mitochondrial ribosomal protein L14)	3	0.108	84	0.179	89.6	inactive
STK17A (serine/threonine kinase 17a)	1	-0.303	75.9	-0.0607	86.1	inactive
STK17A (serine/threonine kinase 17a)	3	-0.664	68.7	-0.679	91.8	inactive
OLFM4 (olfactomedin 4)	1	-0.615	69.7	-0.692	93.4	inactive
OLFM4 (olfactomedin 4)	3	-0.873	64.5	-1.08	95.8	inactive
MRPL14 (mitochondrial ribosomal protein L14)	2	-1.26	56.9	-1.28	89.1	inactive
